Data reported in paper doi:10.1101/2021.02.09.430422.
These are yes or no findings as the source states them, for the method shown. In cells and extracts the contact can be indirect. Binding can be weak; no strength is given. Tags and fused reporters may be left off the sequences shown.

Target: T1, Nse5-3C-His(8) (S. cerevisiae) (UniProt Q03718)
T1 sequence: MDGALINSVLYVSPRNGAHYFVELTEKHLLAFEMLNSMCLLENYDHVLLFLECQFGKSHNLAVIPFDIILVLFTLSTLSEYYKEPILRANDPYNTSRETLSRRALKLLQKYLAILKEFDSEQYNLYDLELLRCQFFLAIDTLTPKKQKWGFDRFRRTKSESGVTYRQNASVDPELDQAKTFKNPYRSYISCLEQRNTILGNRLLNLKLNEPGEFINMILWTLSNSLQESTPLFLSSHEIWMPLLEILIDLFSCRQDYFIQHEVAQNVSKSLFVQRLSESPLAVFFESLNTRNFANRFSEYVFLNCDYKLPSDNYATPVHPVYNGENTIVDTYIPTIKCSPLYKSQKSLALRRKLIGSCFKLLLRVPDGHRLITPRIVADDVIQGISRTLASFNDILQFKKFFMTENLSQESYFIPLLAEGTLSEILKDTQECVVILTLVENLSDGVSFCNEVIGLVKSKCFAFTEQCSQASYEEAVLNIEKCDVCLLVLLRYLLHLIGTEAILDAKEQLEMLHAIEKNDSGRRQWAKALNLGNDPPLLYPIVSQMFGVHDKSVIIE
Test: co-purification after co-expression

Nse6 (S. cerevisiae)
binding: binds
